Taken from: PubChem BioAssay AID652272 (Drosophila RNAi Screening Center, 2013)
The screen tested about 21,000 reagents; shown is a random part of those with a known target gene and a result. In the full data, 503 (2.4%) got an active call. 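Raw plate light values, not normalised; calls rest on replicate z-scores that were not deposited; hits include reporter decreases as well as increases.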 A plus sign joins genes that one reagent is predicted to hit. Not given: the amount of reagent, the time to read-out.

- Screen: 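Genome-wide knock-down search for components of Hedgehog signalling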 (primary screen)
- Cell system: Drosophila clone 8 (Cl8) cells
- Reagents: long dsRNA against Drosophila genes
- Read-out: 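Plate reader light from a firefly reporter under a ptc promoter fragment that responds to Hedgehog, with Renilla light as transfection reference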
- Scale: firefly Hh reporter signal: higher = more ptc reporter light; Renilla reference signal: higher = more Renilla control light
- Rule for the call: 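Called a hit if the two-replicate mean z-score lies below -2 or above +3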
- Calls: active = hit: reporter lowered or raised; inactive = not a hit

mahj (mahjong) [DRSC04053] | firefly Hh reporter signal, replicate 1 = 91105; firefly Hh reporter signal, replicate 2 = 52267; Renilla reference signal, replicate 1 = 2875; Renilla reference signal, replicate 2 = 1690; activity call = inactive
CG31710 [DRSC01089] | firefly Hh reporter signal, replicate 1 = 7.64e5; firefly Hh reporter signal, replicate 2 = 7.75e5; firefly Hh reporter signal, replicate 3 = 3.50e5; Renilla reference signal, replicate 1 = 37832; Renilla reference signal, replicate 2 = 5787; activity call = inactive
Spt20 [DRSC10280] | firefly Hh reporter signal, replicate 1 = 44747; firefly Hh reporter signal, replicate 2 = 20051; firefly Hh reporter signal, replicate 3 = 13129; Renilla reference signal, replicate 1 = 2963; Renilla reference signal, replicate 2 = 1067; activity call = inactive
Irk1 (Inwardly rectifying potassium channel 1) [DRSC14686] | firefly Hh reporter signal, replicate 1 = 5.21e5; firefly Hh reporter signal, replicate 2 = 1.20e5; Renilla reference signal, replicate 1 = 25896; Renilla reference signal, replicate 2 = 3691; activity call = inactive
Irk1 (Inwardly rectifying potassium channel 1) [DRSC16106] | firefly Hh reporter signal, replicate 1 = 4.03e5; firefly Hh reporter signal, replicate 2 = 90772; Renilla reference signal, replicate 1 = 19463; Renilla reference signal, replicate 2 = 2448; activity call = inactive
Mpi (Mannose phosphate isomerase) [DRSC16417] | firefly Hh reporter signal, replicate 1 = 76653; firefly Hh reporter signal, replicate 2 = 1.22e5; Renilla reference signal, replicate 1 = 1803; Renilla reference signal, replicate 2 = 3220; activity call = inactive
CG44000 + CG33995 + CG44001 [DRSC00853] | firefly Hh reporter signal, replicate 1 = 5.88e5; firefly Hh reporter signal, replicate 2 = 2.34e5; Renilla reference signal, replicate 1 = 27360; Renilla reference signal, replicate 2 = 9096; activity call = inactive
CG44000 + CG33995 + CG44001 [DRSC02898] | firefly Hh reporter signal, replicate 1 = 1.32e5; firefly Hh reporter signal, replicate 2 = 1.38e5; Renilla reference signal, replicate 1 = 6027; Renilla reference signal, replicate 2 = 5588; activity call = inactive
CG14502 [DRSC06473] | firefly Hh reporter signal, replicate 1 = 89804; firefly Hh reporter signal, replicate 2 = 59689; Renilla reference signal, replicate 1 = 4667; Renilla reference signal, replicate 2 = 2611; activity call = inactive
tkv + CR14033 + tRNA:Asp-GTC-2-1 + 1 more [DRSC00861] | firefly Hh reporter signal, replicate 1 = 8.04e5; firefly Hh reporter signal, replicate 2 = 8.58e5; firefly Hh reporter signal, replicate 3 = 3.09e5; Renilla reference signal, replicate 1 = 40333; Renilla reference signal, replicate 2 = 5805; activity call = inactive

Individual results from the entries so far:
Mpi (Mannose phosphate isomerase) [DRSC16417], firefly Hh reporter signal, replicate 1 → 76653
For “Renilla reference signal, replicate 1”, CG14502 [DRSC06473] reads 4667
For “activity call”, mahj (mahjong) [DRSC04053] shows inactive

The list goes on:
saturn [DRSC09303] | firefly Hh reporter signal, replicate 1 = 2.64e5; Renilla reference signal, replicate 1 = 6669; activity call = inactive
CG14356 [DRSC14819] | firefly Hh reporter signal, replicate 1 = 1.02e5; firefly Hh reporter signal, replicate 2 = 1.26e5; Renilla reference signal, replicate 1 = 3365; Renilla reference signal, replicate 2 = 3136; activity call = inactive
Vps29 (Vacuolar protein sorting 29) [DRSC00666] | firefly Hh reporter signal, replicate 1 = 1.00e5; firefly Hh reporter signal, replicate 2 = 59804; Renilla reference signal, replicate 1 = 4220; Renilla reference signal, replicate 2 = 2647; activity call = inactive
CG2736 [DRSC04314] | firefly Hh reporter signal, replicate 1 = 1.08e5; firefly Hh reporter signal, replicate 2 = 99297; Renilla reference signal, replicate 1 = 4752; Renilla reference signal, replicate 2 = 3901; activity call = inactive
CG11509 (retired record) [DRSC17788] | firefly Hh reporter signal, replicate 1 = 1.22e5; firefly Hh reporter signal, replicate 2 = 97702; Renilla reference signal, replicate 1 = 1536; Renilla reference signal, replicate 2 = 2912; activity call = inactive
psq (pipsqueak) [DRSC07668] | firefly Hh reporter signal, replicate 1 = 26784; firefly Hh reporter signal, replicate 2 = 11367; Renilla reference signal, replicate 1 = 1467; Renilla reference signal, replicate 2 = 691; activity call = inactive
Aptx (aprataxin) [DRSC15768] | firefly Hh reporter signal, replicate 1 = 6.17e5; firefly Hh reporter signal, replicate 2 = 1.17e5; Renilla reference signal, replicate 1 = 30656; Renilla reference signal, replicate 2 = 2873; activity call = inactive
CR32511 (pseudo) [DRSC20697] | firefly Hh reporter signal, replicate 1 = 6.12e5; firefly Hh reporter signal, replicate 2 = 1.45e5; Renilla reference signal, replicate 1 = 6795; Renilla reference signal, replicate 2 = 6795; activity call = inactive
CG43736 [DRSC18370] | firefly Hh reporter signal, replicate 1 = 1.11e5; firefly Hh reporter signal, replicate 2 = 3.24e5; Renilla reference signal, replicate 1 = 2755; Renilla reference signal, replicate 2 = 7434; activity call = inactive
CG43736 [DRSC18371] | firefly Hh reporter signal, replicate 1 = 1.37e5; firefly Hh reporter signal, replicate 2 = 3.66e5; Renilla reference signal, replicate 1 = 4360; Renilla reference signal, replicate 2 = 12826; activity call = inactive
bap (bagpipe) [DRSC16908] | firefly Hh reporter signal, replicate 1 = 5.93e5; firefly Hh reporter signal, replicate 2 = 85824; Renilla reference signal, replicate 1 = 3856; Renilla reference signal, replicate 2 = 3856; activity call = inactive
CG34204 [DRSC03897] | firefly Hh reporter signal, replicate 1 = 1.07e5; firefly Hh reporter signal, replicate 2 = 1.69e5; Renilla reference signal, replicate 1 = 2672; Renilla reference signal, replicate 2 = 6828; activity call = inactive
CG5171 [DRSC02823] | firefly Hh reporter signal, replicate 1 = 70669; firefly Hh reporter signal, replicate 2 = 60336; Renilla reference signal, replicate 1 = 2469; Renilla reference signal, replicate 2 = 1851; activity call = inactive
CG3323 [DRSC18303] | firefly Hh reporter signal, replicate 1 = 65158; firefly Hh reporter signal, replicate 2 = 1.75e5; Renilla reference signal, replicate 1 = 2082; Renilla reference signal, replicate 2 = 5952; activity call = inactive
Su(z)12 [DRSC11293] | firefly Hh reporter signal, replicate 1 = 93784; firefly Hh reporter signal, replicate 2 = 1.07e5; Renilla reference signal, replicate 1 = 3552; Renilla reference signal, replicate 2 = 3175; activity call = inactive
Ubc87F (Ubiquitin conjugating enzyme 87F) [DRSC16513] | firefly Hh reporter signal, replicate 1 = 91490; firefly Hh reporter signal, replicate 2 = 1.39e5; Renilla reference signal, replicate 1 = 3937; Renilla reference signal, replicate 2 = 4201; activity call = inactive
CG6271 [DRSC16006] | firefly Hh reporter signal, replicate 1 = 80873; firefly Hh reporter signal, replicate 2 = 59476; Renilla reference signal, replicate 1 = 1901; Renilla reference signal, replicate 2 = 1900; activity call = inactive
